Measured values published in article PMC6925144, “A prospective compound screening contest identified broader inhibitors for Sirtuin 1” (Scientific Reports, 2019).
Whole data set: some 3,200 compounds, median “TSA(without NAD+) / Primary screening (TSA) / delta Tm (K)” near -0.07, cut for the highest 2% near 0.37. Some of the results follow.

Sequences of proteins named here, by UniProt entry; tags and fusion partners are left off. Residues count along the entry.
UniProt Q96EB6, 2-747 limits assumed: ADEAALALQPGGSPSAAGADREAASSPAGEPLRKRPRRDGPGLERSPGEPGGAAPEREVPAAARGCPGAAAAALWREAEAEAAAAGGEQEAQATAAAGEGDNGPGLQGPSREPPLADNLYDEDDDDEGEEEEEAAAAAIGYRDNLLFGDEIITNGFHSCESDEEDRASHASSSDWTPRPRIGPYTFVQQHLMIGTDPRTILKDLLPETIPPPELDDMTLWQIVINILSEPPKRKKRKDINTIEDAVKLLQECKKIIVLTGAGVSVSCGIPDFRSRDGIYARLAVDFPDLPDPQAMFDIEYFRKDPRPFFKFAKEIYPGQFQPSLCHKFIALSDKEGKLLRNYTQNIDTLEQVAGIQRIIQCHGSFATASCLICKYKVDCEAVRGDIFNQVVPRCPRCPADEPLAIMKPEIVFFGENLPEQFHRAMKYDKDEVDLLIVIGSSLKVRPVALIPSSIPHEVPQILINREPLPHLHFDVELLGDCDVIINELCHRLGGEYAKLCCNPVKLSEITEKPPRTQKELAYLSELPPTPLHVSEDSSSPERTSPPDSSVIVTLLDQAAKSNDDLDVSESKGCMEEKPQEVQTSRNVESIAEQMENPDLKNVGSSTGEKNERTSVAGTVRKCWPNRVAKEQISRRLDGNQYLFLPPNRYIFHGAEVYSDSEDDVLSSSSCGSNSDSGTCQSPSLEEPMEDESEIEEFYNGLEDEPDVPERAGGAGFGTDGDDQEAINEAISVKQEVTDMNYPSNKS

Each compound was assayed against NAD-dependent deacetylase Sirtuin 1 (human, UniProt Q96EB6) (assay: primary screen, delta tm). Settings: 10 µM.
Set-up: single well (n = 1)
Outline: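 Thermal shift of Sirtuin 1 measured without NAD+, compound at 10 µM (n = 1); value is ΔTm, with hits defined as ΔTm > 0.45 K or < −1.5 K. Hits retested at 5, 10, 20 µM (n = 4) and counterscreened on bovine carbonic anhydrase and ABL1 SH2 domain.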

Row | SMILES | TSA(without NAD+) / Primary screening (TSA) / delta Tm (K)
1 | CN(C)CCOc1ccc(C(N)=S)cc1 | -0.17 K
2 | O=C(NCc1cccc(NC(=O)C2CC2)c1)c1ccc(C(=O)c2ccccc2)cc1 | -0.11 K
3 | CC(C)C(NS(=O)(=O)/C=C/c1ccccc1)C(=O)O (centres unmarked) | 0.05 K
4 | COc1ccccc1N1C(=O)CC(Nc2ccc(C(=O)O)cc2)C1=O (centres unmarked) | -0.05 K
5 | NC(=O)c1ccnc(N2CCN(CCO)CC2)c1 | 0.02 K
6 | C=CCNc1ccc2nnc(C(F)(F)F)n2n1 | -0.12 K
7 | CN(c1ccccc1)S(=O)(=O)c1cccc(NCC(=O)Nc2ccc(Br)cc2)c1 | -0.08 K
8 | Cc1ccc(N(C)S(=O)(=O)c2cccc(C(=O)Nc3ccccc3C(F)(F)F)c2)cc1 | -0.13 K
9 | Cc1onc(-c2ccccc2)c1-c1nnc(CN2C(=O)c3ccc([N+](=O)[O-])cc3C2=O)o1 | -0.08 K
10 | CCC(N)C(N)=O (centres unmarked) | -0.22 K
11 | Cn1c(=O)c2c(ncn2CC(=O)OCc2cc(=O)n3c(n2)sc2ccccc23)n(C)c1=O | -0.05 K
12 | O=C(CSc1nnc(NCc2ccco2)s1)N1CCN(Cc2cccc3ccccc23)CC1 | -0.13 K
13 | CN(c1ccccc1)S(=O)(=O)c1cccc(C(=O)Nc2ccc(Br)cc2Cl)c1 | 0.06 K
14 | CCc1ccc2c(COC(=O)c3cccc(S(=O)(=O)N(C)c4ccccc4)c3)cc(=O)oc2c1 | -0.08 K
15 | O[C@@H]1CCN(c2ncnc3ccsc23)C1 | -0.02 K
16 | COc1cccc(C2=N/C(=C/c3cccnc3)C(=O)O2)c1 | -0.02 K
17 | O=C(CSc1nnc(NCc2ccco2)s1)Nc1ccc(N2CCCC2=O)cc1 | -0.23 K
18 | COc1ccnc(N(C)C[C@H](O)CO)n1 | -0.12 K
19 | COc1cc(-c2nc(-c3ccccc3)c(-c3ccccc3)[nH]2)ccc1OS(=O)(=O)c1ccc(C)cc1 | 0.32 K
20 | Cn1c(=O)c2ccccc2n2c(COC(=O)Cn3nc(-c4ccc(F)cc4)oc3=O)nnc12 | -0.13 K
21 | C=CCCCCN | 0.06 K

A different layout for part of the listing above:
O=C(NCc1cccc(NC(=O)C2CC2)c1)c1ccc(C(=O)c2ccccc2)cc1
  TSA(without NAD+) / Primary screening (TSA) / delta Tm (K): -0.11 K
CC(C)C(NS(=O)(=O)/C=C/c1ccccc1)C(=O)O (centres unmarked)
  TSA(without NAD+) / Primary screening (TSA) / delta Tm (K): 0.05 K

(continued)

Row | SMILES | TSA(without NAD+) / Primary screening (TSA) / delta Tm (K)
22 | Cc1cc(CSc2nc3ccccc3[nH]2)no1 | 0.07 K
23 | O=C(Nc1cc2c(=O)[nH]cnc2cc1F)c1cccc(Cl)c1F | 0.09 K
24 | NC(=O)c1ccc(COC(=O)c2ccccc2NC(=O)c2ccco2)cc1 | -0.15 K
25 | CC(N)(CN)C1CC1 (centres unmarked) | 0.15 K
26 | CC1(c2cccc(NC(=O)c3ccc4c(c3)CCC4)c2)NC(=O)NC1=O (centres unmarked) | -0.04 K
27 | Cc1ccccc1OC(=O)C1CCN(S(=O)(=O)c2cc(C(N)=O)n(C)c2)CC1 | -0.07 K
28 | Cc1cccc(Cl)c1OCC(=O)NCC(F)(F)F | -0.02 K
29 | c1nc(N2CCCC3(C2)OCCO3)c2sccc2n1 | -0.03 K
30 | Cc1ccc(C)n1-c1sc2c(c1C#N)CCCC2 | -0.17 K
31 | CCOc1nc2cc(C(=O)O[C@H]3CCOC3)ccc2[nH]1 | -0.28 K
32 | Cc1cc(C)n(CC(=O)N/N=C/c2cn(-c3ccccc3)nc2-c2cc3ccccc3oc2=O)n1 | -0.12 K
33 | O=C1CN(c2ccc(NC(=O)CCCc3nc4ccccc4[nH]3)cn2)CCN1 | -0.08 K
34 | COc1ccccc1CC(=O)Nc1cc2c(=O)[nH]cnc2cc1F | -0.03 K
35 | Cc1ccccc1C(=O)NCC(=O)OC(C)C(=O)NCc1ccco1 (centres unmarked) | -0.12 K
36 | O=C1NC(=O)C(=Cc2ccc(-c3ccc(Cl)c(Cl)c3)o2)C(=O)N1 | -0.37 K
37 | Nc1ccc2c(c1)ncn2-c1ccccc1 | 0.16 K
38 | CC(c1nc(-c2ccccc2)no1)N1CCN(c2nc(C(F)(F)F)nc3ccccc23)CC1 (centres unmarked) | 0.29 K
39 | O=c1cc(COc2cccc([N+](=O)[O-])c2)nc2ccccn12 | -0.13 K
40 | CC(C)(C)CC(N)CN (centres unmarked) | -0.32 K
41 | NCCCCF | -0.23 K
42 | CC(OC(=O)CCc1nc2ccccc2c(=O)[nH]1)C(=O)NCc1ccco1 (centres unmarked) | -0.12 K

Row | SMILES | TSA(without NAD+) / Primary screening (TSA) / delta Tm (K)
43 | CCCCCCOc1ccc(C=C2C(=O)NC(=S)NC2=O)cc1 | 0.12 K
44 | CC(O)CNc1ncnc2ccsc12 (centres unmarked) | 0.02 K
45 | CCC(=O)NN | -0.13 K
46 | c1ccc2c(c1)oc1c(N3CCN(Cc4cn5ccccc5n4)CC3)ncnc12 | -0.03 K
47 | Cc1nc(N2CCC(C(N)=O)CC2)c2c3c(sc2n1)CCC3 | 0.07 K
48 | CCn1c(-c2ccccc2)c(C(=O)CCl)c2ccccc21 | -0.13 K
49 | CNS(=O)(=O)NCC(=O)O | 0.06 K
50 | Cc1cc(C(=O)COC(=O)C23CC4CC(CC(C4)C2)C3)c(C)n1Cc1ccc2c(c1)OCO2 | 0.02 K
51 | COc1ccc(N(C)S(=O)(=O)c2cccc(C(=O)Nc3ccc(Br)cc3)c2)cc1 | 0.36 K
52 | CC(=O)Nc1ccc(S(=O)(=O)N(C)CC(=O)Nc2ccc(C34CC5CC(CC(C5)C3)C4)cc2)cc1 | -0.07 K
53 | O=C(Nc1ccc(N2CCN(Cc3ccccc3)CC2)cc1)c1oc2ccccc2c1COc1ccccc1 | -0.18 K
54 | NC(=O)C1CCCC1Nc1nc(C2CC2)ns1 (centres unmarked) | -0.02 K
55 | CCCC(O)CN (centres unmarked) | -0.18 K
56 | O=C1NC2(CCOc3ccccc32)C(=O)N1Cc1cccc2ccccc12 (centres unmarked) | -0.08 K
57 | Cc1cc(C(=O)Nc2ccc3c(c2)OC2(CCCC2)O3)c2ccccc2n1 | 0.02 K
58 | CN(c1ccccc1C(N)=O)S(=O)(=O)c1cccc(C#N)c1 | -0.14 K
59 | Cc1ccc(CCC(=O)Nc2cc(C(N)=O)ccc2N2CCCCC2)cc1Cl | 0.09 K
60 | O=C1NC(=S)NC(=O)C1=Cc1ccc(-c2ccc(SC(F)F)cc2)o1 | -0.34 K
61 | Cc1ccc2c(COC(=O)C(CCS(C)(=O)=O)NC(=O)c3ccccc3)cc(=O)oc2c1 (centres unmarked) | -0.23 K
62 | O=C(CCc1nc2ccccc2o1)N1CCN(C(c2ccc(F)cc2)c2ccc(F)cc2)CC1 | -0.28 K
